Assay results taken from the supplement of paper PMC10849652.
This is one part of the list.

Chains of the proteins cited; added tags and fusions are not shown. Lines headed by an entry give the natural chain unless they say otherwise; changes in a name come on top.
UniProt Q96AX1: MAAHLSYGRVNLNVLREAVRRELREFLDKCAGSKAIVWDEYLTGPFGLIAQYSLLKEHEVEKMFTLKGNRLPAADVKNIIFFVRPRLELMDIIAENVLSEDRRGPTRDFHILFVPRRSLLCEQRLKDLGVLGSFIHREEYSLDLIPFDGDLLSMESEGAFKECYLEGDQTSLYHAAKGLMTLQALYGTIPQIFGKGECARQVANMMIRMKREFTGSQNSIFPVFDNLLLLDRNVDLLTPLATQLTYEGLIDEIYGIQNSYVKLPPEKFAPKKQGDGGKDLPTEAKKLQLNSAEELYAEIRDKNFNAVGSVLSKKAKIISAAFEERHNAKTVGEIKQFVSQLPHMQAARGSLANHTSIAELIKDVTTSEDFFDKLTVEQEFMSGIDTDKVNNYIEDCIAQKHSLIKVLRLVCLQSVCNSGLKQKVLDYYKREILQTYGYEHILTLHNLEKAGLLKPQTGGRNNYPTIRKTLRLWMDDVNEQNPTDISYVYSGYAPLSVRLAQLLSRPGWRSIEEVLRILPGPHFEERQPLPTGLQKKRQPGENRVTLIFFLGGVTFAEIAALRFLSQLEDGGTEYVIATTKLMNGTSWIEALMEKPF
UniProt Q15061: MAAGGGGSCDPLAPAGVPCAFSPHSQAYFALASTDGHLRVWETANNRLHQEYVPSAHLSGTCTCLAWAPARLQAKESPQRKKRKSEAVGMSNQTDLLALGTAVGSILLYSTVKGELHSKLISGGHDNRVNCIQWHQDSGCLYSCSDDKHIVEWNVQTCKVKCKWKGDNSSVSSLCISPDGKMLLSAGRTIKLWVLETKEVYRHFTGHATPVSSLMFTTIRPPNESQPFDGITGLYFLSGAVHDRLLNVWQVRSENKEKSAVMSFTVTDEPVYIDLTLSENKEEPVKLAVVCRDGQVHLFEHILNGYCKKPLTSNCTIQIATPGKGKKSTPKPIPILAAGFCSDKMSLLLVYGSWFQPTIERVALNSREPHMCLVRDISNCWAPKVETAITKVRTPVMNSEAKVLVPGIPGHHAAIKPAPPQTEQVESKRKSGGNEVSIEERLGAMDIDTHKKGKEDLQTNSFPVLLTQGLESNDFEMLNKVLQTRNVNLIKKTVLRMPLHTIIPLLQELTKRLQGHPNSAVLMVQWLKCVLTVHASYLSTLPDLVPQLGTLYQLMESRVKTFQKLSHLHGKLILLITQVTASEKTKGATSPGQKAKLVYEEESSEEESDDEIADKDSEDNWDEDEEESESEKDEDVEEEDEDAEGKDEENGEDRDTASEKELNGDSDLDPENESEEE
UniProt Q5MNZ6: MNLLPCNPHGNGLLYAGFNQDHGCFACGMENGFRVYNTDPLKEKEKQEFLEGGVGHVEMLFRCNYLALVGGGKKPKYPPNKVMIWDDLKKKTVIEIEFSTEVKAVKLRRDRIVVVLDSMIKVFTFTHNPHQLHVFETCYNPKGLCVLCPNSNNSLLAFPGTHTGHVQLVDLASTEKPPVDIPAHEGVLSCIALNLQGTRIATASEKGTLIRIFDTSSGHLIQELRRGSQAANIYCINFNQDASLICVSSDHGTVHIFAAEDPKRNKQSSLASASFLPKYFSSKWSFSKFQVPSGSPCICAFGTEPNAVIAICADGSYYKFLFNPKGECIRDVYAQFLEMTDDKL
UniProt Q6P4I2: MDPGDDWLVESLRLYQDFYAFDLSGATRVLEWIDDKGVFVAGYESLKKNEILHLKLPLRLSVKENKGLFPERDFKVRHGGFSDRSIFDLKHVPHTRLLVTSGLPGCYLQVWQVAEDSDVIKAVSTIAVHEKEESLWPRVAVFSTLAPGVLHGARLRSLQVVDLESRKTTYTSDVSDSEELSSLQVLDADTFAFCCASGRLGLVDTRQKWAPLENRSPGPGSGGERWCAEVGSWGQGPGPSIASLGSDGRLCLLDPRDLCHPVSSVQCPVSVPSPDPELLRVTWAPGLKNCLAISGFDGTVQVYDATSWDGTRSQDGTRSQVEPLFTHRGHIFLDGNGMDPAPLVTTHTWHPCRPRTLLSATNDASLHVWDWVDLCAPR
UniProt Q8TBZ3: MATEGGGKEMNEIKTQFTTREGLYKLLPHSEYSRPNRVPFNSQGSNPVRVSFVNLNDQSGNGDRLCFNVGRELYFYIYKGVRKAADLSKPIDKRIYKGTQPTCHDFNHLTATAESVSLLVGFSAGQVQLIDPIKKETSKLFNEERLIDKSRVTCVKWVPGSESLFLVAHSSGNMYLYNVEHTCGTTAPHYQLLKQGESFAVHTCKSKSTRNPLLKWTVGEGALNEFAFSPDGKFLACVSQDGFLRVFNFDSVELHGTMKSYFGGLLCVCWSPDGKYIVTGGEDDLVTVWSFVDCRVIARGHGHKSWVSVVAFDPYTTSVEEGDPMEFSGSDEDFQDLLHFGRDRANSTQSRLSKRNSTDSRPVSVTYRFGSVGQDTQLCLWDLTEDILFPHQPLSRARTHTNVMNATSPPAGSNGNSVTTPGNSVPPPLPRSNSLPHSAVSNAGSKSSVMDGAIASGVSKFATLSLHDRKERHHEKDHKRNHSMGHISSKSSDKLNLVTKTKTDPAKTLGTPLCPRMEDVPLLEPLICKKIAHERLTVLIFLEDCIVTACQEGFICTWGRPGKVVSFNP
UniProt Q9NW82: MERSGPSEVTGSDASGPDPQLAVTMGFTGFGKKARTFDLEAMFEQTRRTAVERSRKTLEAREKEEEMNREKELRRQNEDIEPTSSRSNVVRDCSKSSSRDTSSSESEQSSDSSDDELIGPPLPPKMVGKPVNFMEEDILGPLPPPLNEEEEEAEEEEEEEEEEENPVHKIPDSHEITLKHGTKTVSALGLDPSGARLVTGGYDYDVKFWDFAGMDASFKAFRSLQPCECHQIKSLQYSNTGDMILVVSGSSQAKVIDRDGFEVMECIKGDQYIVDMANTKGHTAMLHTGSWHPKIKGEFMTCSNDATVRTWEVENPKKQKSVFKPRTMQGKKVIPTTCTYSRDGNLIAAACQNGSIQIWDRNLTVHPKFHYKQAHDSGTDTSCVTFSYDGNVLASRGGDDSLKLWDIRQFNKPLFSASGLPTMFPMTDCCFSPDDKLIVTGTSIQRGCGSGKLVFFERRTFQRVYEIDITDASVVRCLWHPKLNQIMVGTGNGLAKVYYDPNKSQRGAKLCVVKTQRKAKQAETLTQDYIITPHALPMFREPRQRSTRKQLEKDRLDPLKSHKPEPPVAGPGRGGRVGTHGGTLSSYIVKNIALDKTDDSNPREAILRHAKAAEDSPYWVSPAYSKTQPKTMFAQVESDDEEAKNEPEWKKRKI
UniProt Q8TF74: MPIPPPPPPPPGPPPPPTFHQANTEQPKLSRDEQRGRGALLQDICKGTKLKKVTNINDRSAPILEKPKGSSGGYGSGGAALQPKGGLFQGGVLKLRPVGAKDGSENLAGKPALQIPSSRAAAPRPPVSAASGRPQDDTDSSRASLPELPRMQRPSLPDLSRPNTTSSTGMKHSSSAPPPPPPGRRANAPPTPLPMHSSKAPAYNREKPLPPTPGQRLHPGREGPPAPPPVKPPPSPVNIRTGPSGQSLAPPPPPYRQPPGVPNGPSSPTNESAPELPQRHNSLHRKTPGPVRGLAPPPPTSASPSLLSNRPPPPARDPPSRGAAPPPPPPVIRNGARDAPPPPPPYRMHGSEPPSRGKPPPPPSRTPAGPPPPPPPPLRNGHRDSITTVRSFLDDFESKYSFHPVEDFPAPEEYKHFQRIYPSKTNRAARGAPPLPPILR
UniProt Q86Y07: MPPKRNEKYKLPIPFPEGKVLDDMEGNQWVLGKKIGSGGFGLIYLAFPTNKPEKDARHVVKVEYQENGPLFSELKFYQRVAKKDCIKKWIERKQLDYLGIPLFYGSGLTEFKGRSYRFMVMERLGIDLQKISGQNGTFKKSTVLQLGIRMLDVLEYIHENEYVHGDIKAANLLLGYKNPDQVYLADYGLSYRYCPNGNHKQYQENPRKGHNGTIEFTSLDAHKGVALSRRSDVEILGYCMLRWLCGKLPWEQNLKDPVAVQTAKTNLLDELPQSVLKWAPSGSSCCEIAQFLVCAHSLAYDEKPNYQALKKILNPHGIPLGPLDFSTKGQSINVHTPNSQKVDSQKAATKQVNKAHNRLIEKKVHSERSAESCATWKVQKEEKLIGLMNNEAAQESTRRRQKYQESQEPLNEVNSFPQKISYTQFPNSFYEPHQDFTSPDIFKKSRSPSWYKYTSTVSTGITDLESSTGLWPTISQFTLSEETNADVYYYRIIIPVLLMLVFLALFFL
UniProt P23381: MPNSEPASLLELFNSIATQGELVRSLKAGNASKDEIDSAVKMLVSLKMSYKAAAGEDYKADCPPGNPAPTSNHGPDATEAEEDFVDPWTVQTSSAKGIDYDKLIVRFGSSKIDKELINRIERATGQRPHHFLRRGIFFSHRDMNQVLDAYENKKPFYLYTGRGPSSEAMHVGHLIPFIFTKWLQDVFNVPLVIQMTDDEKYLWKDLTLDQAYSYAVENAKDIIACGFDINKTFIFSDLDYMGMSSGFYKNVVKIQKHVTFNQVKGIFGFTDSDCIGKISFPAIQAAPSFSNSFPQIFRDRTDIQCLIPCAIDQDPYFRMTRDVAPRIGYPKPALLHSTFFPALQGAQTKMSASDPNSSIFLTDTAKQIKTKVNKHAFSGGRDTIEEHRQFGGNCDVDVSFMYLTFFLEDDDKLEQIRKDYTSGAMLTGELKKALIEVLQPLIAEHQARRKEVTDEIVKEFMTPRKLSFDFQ
UniProt Q9Y2I8: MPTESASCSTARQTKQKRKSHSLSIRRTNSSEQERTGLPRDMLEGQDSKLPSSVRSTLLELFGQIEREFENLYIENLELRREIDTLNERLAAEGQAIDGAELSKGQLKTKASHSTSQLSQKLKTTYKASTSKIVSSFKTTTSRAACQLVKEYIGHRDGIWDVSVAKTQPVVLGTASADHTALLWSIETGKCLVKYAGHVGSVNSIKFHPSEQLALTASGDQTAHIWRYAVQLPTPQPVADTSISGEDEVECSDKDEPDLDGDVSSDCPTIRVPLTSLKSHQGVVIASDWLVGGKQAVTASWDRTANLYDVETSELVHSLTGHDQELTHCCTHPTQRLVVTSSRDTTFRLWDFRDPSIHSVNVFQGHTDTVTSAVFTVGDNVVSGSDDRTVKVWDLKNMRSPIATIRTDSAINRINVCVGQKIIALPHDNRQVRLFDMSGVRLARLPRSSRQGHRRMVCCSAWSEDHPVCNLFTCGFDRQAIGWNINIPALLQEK
UniProt Q96JG6: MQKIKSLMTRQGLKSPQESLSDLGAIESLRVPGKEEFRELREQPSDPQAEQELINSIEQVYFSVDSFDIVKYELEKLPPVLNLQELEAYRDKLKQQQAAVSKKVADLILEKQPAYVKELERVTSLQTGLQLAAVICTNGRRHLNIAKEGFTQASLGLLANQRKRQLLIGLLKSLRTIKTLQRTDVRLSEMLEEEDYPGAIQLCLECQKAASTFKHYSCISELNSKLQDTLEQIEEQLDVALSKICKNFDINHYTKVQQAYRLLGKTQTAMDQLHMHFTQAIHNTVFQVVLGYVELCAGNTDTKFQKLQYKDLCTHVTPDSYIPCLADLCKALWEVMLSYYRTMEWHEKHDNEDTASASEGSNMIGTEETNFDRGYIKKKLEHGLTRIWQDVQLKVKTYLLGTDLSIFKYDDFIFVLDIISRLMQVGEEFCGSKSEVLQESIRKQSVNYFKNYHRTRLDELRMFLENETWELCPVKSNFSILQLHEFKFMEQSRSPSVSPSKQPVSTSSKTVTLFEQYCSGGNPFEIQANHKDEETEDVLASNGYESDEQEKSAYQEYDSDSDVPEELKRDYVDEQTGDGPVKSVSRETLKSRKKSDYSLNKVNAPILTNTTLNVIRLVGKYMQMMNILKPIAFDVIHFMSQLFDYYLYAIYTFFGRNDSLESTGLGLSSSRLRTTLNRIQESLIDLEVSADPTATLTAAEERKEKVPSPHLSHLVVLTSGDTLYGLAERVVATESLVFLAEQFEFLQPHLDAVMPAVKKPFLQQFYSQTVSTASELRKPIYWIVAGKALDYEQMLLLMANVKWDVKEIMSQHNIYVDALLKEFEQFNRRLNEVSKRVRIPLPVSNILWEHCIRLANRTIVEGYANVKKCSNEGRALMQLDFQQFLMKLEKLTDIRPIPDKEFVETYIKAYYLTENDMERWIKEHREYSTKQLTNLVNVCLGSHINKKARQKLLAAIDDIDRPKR

Legend:
Experiment in all cases: log2 fold change, soluble protein after heating vs DMSO (PISA); higher = thermal stabilisation; K562 cells, 10 uM, 30 min; active = over 0.2 and 3.5 SD of the protein, either way, in both replicates (recomputed)
[1] = compound: CC1=C(C=C(C=C1)NC(=O)C2=CC(=CC=C2)C(C)(C)C#N)NC3=CC4=C(C=C3)N=CN(C4=O)C
Summary of the method: (§1)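 Values are thermal stability changes relative to control samples and are taken from duplicates. They are stated as log2 fold changes. Before quantification by TMTpro 16plex LC-MS/MS with equalised channel sums, K562 cells at 2×10^6 cells/mL were treated with 10 μM compound for 30 min, heated in aliquots for 3 min across 48°C-58°C, pooled, extracted in PBS with 0.5% NP-40 at 4°C, and centrifuged at 21,000xg for 90 min to give the soluble supernatant.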

[2] = compound: CC1=C(C=C(C=C1)NC(=O)C2=CC(=CC=C2)N(C)C)NC(=O)C3=CC=C(C=C3)O
Summary of the method: as §1

[3] = compound: CC1=CC=C(C=C1)SC2=C3C=C(SC3=CN=C2)C(=O)N
Summary of the method: as §1

[4] = compound: CC1=NC(=CC=C1)C2=C(N=C(N2)C(C)(C)C)C3=CC4=NC=CN=C4C=C3
Summary of the method: as §1

Nexturastat A = compound: CCCCN(Cc1ccc(C(=O)NO)cc1)C(=O)Nc1ccccc1 [Nexturastat A]
Summary of the method: as §1

vemurafenib = compound: CCCS(=O)(=O)Nc1ccc(F)c(C(=O)c2c[nH]c3ncc(-c4ccc(Cl)cc4)cc23)c1F [vemurafenib]
Summary of the method: as §1

[5] = compound: CCCS(=O)(=O)Nc1ccc(F)c(C(=O)c2c[nH]c3ncc(Cl)cc23)c1F
Summary of the method: as §1

[6] = compound: CCCc1cc(C)[nH]c(=O)c1CNC(=O)c1cc(-c2ccnc(N3CCN(C)CC3)c2)cc2c1cnn2C(C)C
Summary of the method: as §1

givinostat = compound: CCN(CC)Cc1ccc2cc(COC(=O)Nc3ccc(C(=O)NO)cc3)ccc2c1 [givinostat]
Summary of the method: as §1

barasertib = compound: CCN(CCCOc1ccc2c(Nc3cc(CC(=O)Nc4cccc(F)c4)[nH]n3)ncnc2c1)CCOP(=O)(O)O [barasertib]
Summary of the method: as §1

Measured: log2 fold change

VPS33A (UniProt Q96AX1)
inactive: [1] -0.013 | [2] -0.074 | [3] -0.016 | [4] -0.021 | Nexturastat A -0.024 | vemurafenib 0.003 | [5] 0.036 | [6] 0.04 | givinostat 0.058 | barasertib 0.068

VPS13B (UniProt Q7Z7G8)
inactive: [1] 0.02 | [2] -0.028 | [3] 0.06 | [4] 0.057 | Nexturastat A -0.011 | vemurafenib 0.008 | [5] -0.011 | [6] -0.008 | givinostat 0.002 | barasertib 0.002

WDR41 (UniProt Q9HAD4)
inactive: [1] 0.044 | [2] 0 | [3] -0.007 | [4] 0.001 | Nexturastat A 0.002 | vemurafenib 0.008 | [5] 0.036 | [6] -0.011 | givinostat -0.04 | barasertib 0.033

WDR43 (UniProt Q15061)
inactive: [1] -0.015 | [2] 0.018 | [3] 0.009 | [4] -0.001 | Nexturastat A -0.097 | vemurafenib -0.027 | [5] 0.012 | [6] -0.061 | givinostat -0.007 | barasertib -0.033

WDR45B (UniProt Q5MNZ6)
inactive: [1] 0.069 | [2] 0.01 | [3] 0.018 | [4] 0.042 | Nexturastat A 0.003 | vemurafenib -0.015 | [5] -0.064 | [6] 0.021 | givinostat 0.031 | barasertib -0.021

WDCP (UniProt Q9H6R7)
inactive: [1] 0.003 | [2] 0.013 | [3] -0.103 | [4] -0.023 | Nexturastat A 0.061 | vemurafenib -0.087 | [5] 0.025 | [6] -0.004 | givinostat 0.116 | barasertib -0.06

VEZF1 (UniProt Q14119)
inactive: [1] -0.002 | [2] 0.081 | [3] -0.172 | [4] -0.159 | Nexturastat A 0.055 | vemurafenib -0.116 | [5] -0.156 | [6] 0.053 | givinostat -0.055 | barasertib -0.083

WDR73 (UniProt Q6P4I2)
inactive: [1] -0.04 | [2] 0.011 | [3] -0.01 | [4] -0.019 | Nexturastat A -0.065 | vemurafenib -0.013 | [5] -0.025 | [6] -0.024 | givinostat -0.028 | barasertib 0.009

VPS28 (UniProt Q9UK41)
inactive: [1] 0.029 | [2] -0.044 | [3] 0.055 | [4] 0.004 | Nexturastat A -0.018 | vemurafenib 0.041 | [5] -0.008 | [6] -0.074 | givinostat -0.024 | barasertib 0.061

WDR44 (UniProt Q5JSH3)
inactive: [1] -0.008 | [2] 0 | [3] -0.025 | [4] -0.002 | Nexturastat A -0.026 | vemurafenib -0.028 | [5] -0.005 | [6] -0.031 | givinostat 0.01 | barasertib -0.008

WDR20 isoform 7 (UniProt Q8TBZ3)
inactive: [1] 0.079 | [2] -0.007 | [3] -0.034 | [4] 0.01 | Nexturastat A 0.169 | vemurafenib -0.012 | [5] -0.001 | [6] 0.085 | givinostat -0.161 | barasertib 0.254

VPS26B (UniProt Q4G0F5)
inactive: [1] 0.017 | [2] 0 | [3] -0.002 | [4] 0.018 | Nexturastat A -0.027 | vemurafenib -0.026 | [5] 0.042 | [6] -0.043 | givinostat 0.019 | barasertib 0.019

VPS26C (UniProt O14972)
inactive: [1] 0.062 | [2] 0 | [3] -0.05 | [4] -0.095 | Nexturastat A 0.048 | vemurafenib -0.045 | [5] -0.009 | [6] 0.076 | givinostat 0.016 | barasertib 0.07

VPS35L (UniProt Q7Z3J2)
inactive: [1] 0.024 | [2] -0.031 | [3] -0.052 | [4] -0.022 | Nexturastat A 0.05 | vemurafenib 0.003 | [5] 0.049 | [6] 0.086 | givinostat 0.03 | barasertib 0.07

Reprinted at random: 2 entries already listed
WDR73 (UniProt Q6P4I2)
inactive: [1] -0.04 | [2] 0.011 | [3] -0.01 | [4] -0.019 | Nexturastat A -0.065 | vemurafenib -0.013 | [5] -0.025 | [6] -0.024 | givinostat -0.028 | barasertib 0.009

VEZF1 (UniProt Q14119)
inactive: [1] -0.002 | [2] 0.081 | [3] -0.172 | [4] -0.159 | Nexturastat A 0.055 | vemurafenib -0.116 | [5] -0.156 | [6] 0.053 | givinostat -0.055 | barasertib -0.083

Later entries

WDR11 (UniProt Q9BZH6)
inactive: [1] -0.004 | [2] 0.057 | [3] -0.008 | [4] -0.016 | Nexturastat A -0.097 | vemurafenib -0.089 | [5] -0.084 | [6] -0.105 | givinostat 0.035 | barasertib 0.034

WASL (UniProt O00401)
inactive: [1] 0.011 | [2] -0.126 | [3] -0.01 | [4] 0.032 | Nexturastat A -0.065 | vemurafenib 0.044 | [5] 0.078 | [6] -0.034 | givinostat -0.085 | barasertib 0.034

WASHC5 (UniProt Q12768)
inactive: [1] -0.011 | [2] -0.011 | [3] 0 | [4] -0.006 | Nexturastat A 0.052 | vemurafenib 0.004 | [5] 0.004 | [6] 0.065 | givinostat 0.085 | barasertib 0.077

VTA1 (UniProt Q9NP79)
inactive: [1] 0.011 | [2] -0.019 | [3] 0.044 | [4] 0.034 | Nexturastat A -0.041 | vemurafenib 0.042 | [5] 0.082 | [6] -0.065 | givinostat -0.005 | barasertib 0.041

WDR70 (UniProt Q9NW82)
inactive: [1] 0.011 | [2] 0.031 | [3] -0.001 | [4] 0.007 | Nexturastat A -0.085 | vemurafenib -0.013 | [5] 0.003 | [6] -0.029 | givinostat -0.001 | barasertib 0.007

WIPF2 (UniProt Q8TF74)
inactive: [1] -0.017 | [2] 0.004 | [3] -0.052 | [4] 0.015 | Nexturastat A 0.006 | vemurafenib -0.049 | [5] -0.001 | [6] -0.012 | givinostat -0.029 | barasertib 0.009

VPS18 (UniProt Q9P253)
inactive: [1] 0.051 | [2] -0.025 | [3] -0.029 | [4] -0.004 | Nexturastat A 0.04 | vemurafenib 0.017 | [5] 0.017 | [6] 0.004 | givinostat 0.035 | barasertib 0.088

VRK2 (UniProt Q86Y07)
inactive: [1] -0.072 | [2] -0.05 | [3] 0.01 | [4] 0.015 | Nexturastat A 0.04 | vemurafenib 0.006 | [5] 0.044 | [6] 0.025 | givinostat 0.03 | barasertib 0.01

WDR13 (UniProt Q9H1Z4)
inactive: [1] -0.042 | [2] -0.013 | [3] 0.018 | [4] 0.014 | Nexturastat A -0.003 | vemurafenib -0.008 | [5] 0.016 | [6] -0.051 | givinostat -0.054 | barasertib -0.043

VDAC2 (UniProt P45880)
inactive: [1] 0.002 | [2] 0.018 | [3] 0.008 | [4] -0.002 | Nexturastat A -0.013 | vemurafenib -0.031 | [5] -0.013 | [6] -0.011 | givinostat -0.015 | barasertib -0.026

WARS (UniProt P23381)
inactive: [1] -0.021 | [2] -0.008 | [3] -0.002 | [4] 0.008 | Nexturastat A -0.028 | vemurafenib 0.004 | [5] -0.014 | [6] 0.024 | givinostat -0.06 | barasertib -0.007

WDR61 (UniProt Q9GZS3)
inactive: [1] -0.026 | [2] 0.024 | [3] 0.001 | [4] -0.027 | Nexturastat A -0.035 | vemurafenib -0.072 | [5] -0.115 | [6] -0.02 | givinostat 0.026 | barasertib 0.038

WBP11 (UniProt Q9Y2W2)
inactive: [1] -0.049 | [2] -0.013 | [3] 0.009 | [4] 0.011 | Nexturastat A 0.016 | vemurafenib 0.019 | [5] 0.014 | [6] -0.003 | givinostat -0.013 | barasertib -0.033

WDR37 isoform 2 (UniProt Q9Y2I8)
inactive: [1] 0.013 | [2] 0.068 | [3] -0.019 | [4] -0.138 | Nexturastat A 0.039 | vemurafenib 0.01 | [5] 0.012 | [6] 0.028 | givinostat -0.018 | barasertib 0.04

VPS50 (UniProt Q96JG6)
inactive: [1] -0.007 | [2] -0.076 | [3] 0.054 | [4] 0.054 | Nexturastat A -0.052 | vemurafenib 0.077 | [5] 0.066 | [6] 0.09 | givinostat 0.014 | barasertib 0.059

VWA5A (UniProt O00534)
inactive: [1] -0.049 | [2] -0.02 | [3] 0.014 | [4] 0.048 | Nexturastat A -0.016 | vemurafenib 0.077 | [5] 0.037 | [6] 0.001 | givinostat 0.037 | barasertib 0.062
